Laboratory results: PubChem BioAssay AID1159584 (Peter MacCallum Cancer Centre, 2016)
The whole screen tested about 18,000 reagents; this is an unselected part. The numbers tell different reagents against one gene apart. Not all columns of the deposit are shown. The record does not give: the amount of reagent, the time to read-out.

Assay: 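Knock-downs that harm CDH1-null cells more than parental MCF10A cells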 (primary screen)
Cells: human MCF10A breast epithelial cells, parental and CDH1-null
Reagent: siRNA against human genes
Measured: 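ATP luminescence (CellTiter-Glo) viability per line relative to mean mock wells over all plates, and the ratio of CDH1-null to parental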
Reading the numbers: CDH1-null / parental viability ratio: higher = CDH1-null cells survive relatively better than parental; CDH1-null viability vs mock: higher = more viable CDH1-null cells

gene symbol | reagent | CDH1-null / parental viability ratio | CDH1-null viability vs mock (fraction of mock)
PHC1 (polyhomeotic homolog 1) | 1 | 1.19 | 1
MRPL14 (mitochondrial ribosomal protein L14) | 1 | 1.02 | 0.84
RTF2 (replication termination factor 2) | 1 | 0.71 | 0.64
MOGAT1 (monoacylglycerol O-acyltransferase 1) | 1 | 1 | 1
PLEKHG7 (pleckstrin homology and RhoGEF domain containing G7) | 1 | 0.97 | 0.76
PLEKHG7 (pleckstrin homology and RhoGEF domain containing G7) | 2 | 1.35 | 1.32
STX7 (syntaxin 7) | 1 | 0.95 | 0.78
CAMK2D (calcium/calmodulin dependent protein kinase II delta) | 1 | 1.07 | 1.01
TMEM102 (transmembrane protein 102) | 1 | 1.09 | 1
CRNN (cornulin) | 1 | 0.88 | 0.44
SLA2 (Src like adaptor 2) | 1 | 0.92 | 0.74
HMOX2 (heme oxygenase 2) | 1 | 0.76 | 0.65
BMP8B (bone morphogenetic protein 8b) | 1 | 1.14 | 1
MOAP1 (modulator of apoptosis 1) | 1 | 1.32 | 0.62
ZNF44 (zinc finger protein 44) | 1 | 0.8 | 0.66
DLGAP1-AS1 (DLGAP1 antisense RNA 1) | 1 | 0.9 | 0.76
SHROOM2 (shroom family member 2) | 1 | 1.08 | 0.79
MRC1 (mannose receptor C-type 1) | 1 | 0.93 | 0.92
MRC1 (mannose receptor C-type 1) | 2 | 0.93 | 0.64
RASA2 (RAS p21 protein activator 2) | 1 | 1.1 | 1.08
YAE1 (YAE1 maturation factor of ABCE1) | 1 | 0.91 | 0.91
NAA40 (N-alpha-acetyltransferase 40, NatD catalytic subunit) | 1 | 0.73 | 0.32
NDUFS4 (NADH:ubiquinone oxidoreductase subunit S4) | 1 | 1.01 | 0.78
NEUROD1 (neuronal differentiation 1) | 1 | 1.1 | 1
ZFYVE16 (zinc finger FYVE-type containing 16) | 1 | 1.02 | 0.53
MDK (midkine) | 1 | 0.94 | 0.72
LY6G5B (lymphocyte antigen 6 family member G5B) | 1 | 1.27 | 0.94
KPNA2 (karyopherin subunit alpha 2) | 1 | 1.1 | 0.92
PIK3C2B | 1 | 0.91 | 0.73
DHX34 (DExH-box helicase 34) | 1 | 0.95 | 0.7
HSD17B7 (hydroxysteroid 17-beta dehydrogenase 7) | 1 | 0.83 | 0.9
EPN3 (epsin 3) | 1 | 0.92 | 0.68
ANKRA2 (ankyrin repeat family A member 2) | 1 | 0.95 | 0.82
ZNF205 (zinc finger protein 205) | 1 | 0.89 | 0.62
ABCA5 (ATP binding cassette subfamily A member 5) | 1 | 1.21 | 1.04
SLC66A2 | 1 | 1.15 | 1.06
SLAMF1 (signaling lymphocytic activation molecule family member 1) | 1 | 0.85 | 0.57
REST (RE1 silencing transcription factor) | 1 | 0.92 | 0.44
F11R (F11 receptor) | 1 | 1.05 | 0.86
RNF139 (ring finger protein 139) | 1 | 1.09 | 1.02
SLC35D2 | 1 | 0.99 | 0.85
NACA (nascent polypeptide associated complex subunit alpha) | 1 | 1 | 0.54
POLG (DNA polymerase gamma, catalytic subunit) | 1 | 0.86 | 0.77
ATG9B (autophagy related 9B) | 1 | 1.05 | 0.9
KRTAP5-7 (keratin associated protein 5-7) | 1 | 1.33 | 0.56
PI4KB (phosphatidylinositol 4-kinase beta) | 1 | 0.86 | 0.63
OR10G3 (olfactory receptor family 10 subfamily G member 3) | 1 | 1.06 | 1.02
CNPPD1 (cyclin Pas1/PHO80 domain containing 1) | 1 | 0.86 | 0.57
BACE1 (beta-secretase 1) | 1 | 1.53 | 0.49

Reformatted: 7 of the entries above.
gene symbol	reagent	CDH1-null / parental viability ratio	CDH1-null viability vs mock (fraction of mock)
HSD17B7 (hydroxysteroid 17-beta dehydrogenase 7)	1	0.83	0.9
EPN3 (epsin 3)	1	0.92	0.68
ANKRA2 (ankyrin repeat family A member 2)	1	0.95	0.82
ZNF205 (zinc finger protein 205)	1	0.89	0.62
ABCA5 (ATP binding cassette subfamily A member 5)	1	1.21	1.04
SLC66A2	1	1.15	1.06
SLAMF1 (signaling lymphocytic activation molecule family member 1)	1	0.85	0.57

The results go on:
gene symbol | reagent | CDH1-null / parental viability ratio | CDH1-null viability vs mock (fraction of mock)
AP2M1 (adaptor related protein complex 2 subunit mu 1) | 1 | 1.19 | 0.62
DYM (dymeclin) | 1 | 0.82 | 0.98
HMCN1 (hemicentin 1) | 1 | 0.96 | 0.5
SPEF2 (sperm flagellar and cilia associated 2) | 1 | 0.95 | 0.82
SIRPA (signal regulatory protein alpha) | 1 | 1.1 | 0.92
C8orf76 (chromosome 8 open reading frame 76) | 1 | 0.84 | 0.74
KCNK18 (potassium two pore domain channel subfamily K member 18) | 1 | 1.36 | 0.76
RNF187 (ring finger protein 187) | 1 | 0.75 | 0.49
BPY2 (basic charge Y-linked 2) | 1 | 1.02 | 0.94
SEC62 (SEC62 preprotein translocation factor) | 1 | 1 | 0.57
FUT8 (fucosyltransferase 8) | 1 | 1.09 | 0.88
OR6T1 (olfactory receptor family 6 subfamily T member 1) | 1 | 0.73 | 0.61
OR8H1 (olfactory receptor family 8 subfamily H member 1) | 1 | 1.38 | 0.87
NECTIN1 (nectin cell adhesion molecule 1) | 1 | 1.14 | 0.96
PRMT7 (protein arginine methyltransferase 7) | 1 | 0.83 | 0.76
SF3B2 (splicing factor 3b subunit 2) | 1 | 1.45 | 0.29
NEDD4L (NEDD4 like E3 ubiquitin protein ligase) | 1 | 1.1 | 0.9
AGR3 | 1 | 0.83 | 0.9
C1orf122 (chromosome 1 open reading frame 122) | 1 | 0.86 | 0.76
A4GNT (alpha-1,4-N-acetylglucosaminyltransferase) | 1 | 0.84 | 0.62
SNRPA (small nuclear ribonucleoprotein polypeptide A) | 1 | 1.19 | 1.11
KCNA1 (potassium voltage-gated channel subfamily A member 1) | 1 | 1.07 | 0.94
CLSTN1 (calsyntenin 1) | 1 | 0.95 | 0.73
DCSTAMP (dendrocyte expressed seven transmembrane protein) | 1 | 1.13 | 0.88
LILRA6 (leukocyte immunoglobulin like receptor A6) | 1 | 1.11 | 0.8
CCDC33 (coiled-coil domain containing 33) | 1 | 0.82 | 0.64
CLCNKB (chloride voltage-gated channel Kb) | 1 | 1.61 | 0.92
DAB1 (DAB adaptor protein 1) | 1 | 1.17 | 0.98
TMEM41A (transmembrane protein 41A) | 1 | 0.67 | 0.56
RPH3A (rabphilin 3A) | 1 | 2.09 | 0.92
HUS1 (HUS1 checkpoint clamp component) | 1 | 0.86 | 0.77
SENP7 (SUMO specific peptidase 7) | 1 | 1.15 | 0.78
SPRYD7 (SPRY domain containing 7) | 1 | 1.29 | 0.98
CYLC1 (cylicin 1) | 1 | 0.76 | 0.62
LRRC18 (leucine rich repeat containing 18) | 1 | 0.96 | 0.44
GGNBP2 (gametogenetin binding protein 2) | 1 | 1.07 | 0.44
CCDC82 (coiled-coil domain containing 82) | 1 | 0.71 | 0.54
SLC16A4 | 1 | 1.19 | 0.96
